From CN114349860A come the findings set out here.

Experiment [1] addresses T1, FGFR4蛋白 (FGFR4 protein antigen, bought from Sino Biological / 义翘神州) (human) (UniProt P22455).
T1 sequence (looked up): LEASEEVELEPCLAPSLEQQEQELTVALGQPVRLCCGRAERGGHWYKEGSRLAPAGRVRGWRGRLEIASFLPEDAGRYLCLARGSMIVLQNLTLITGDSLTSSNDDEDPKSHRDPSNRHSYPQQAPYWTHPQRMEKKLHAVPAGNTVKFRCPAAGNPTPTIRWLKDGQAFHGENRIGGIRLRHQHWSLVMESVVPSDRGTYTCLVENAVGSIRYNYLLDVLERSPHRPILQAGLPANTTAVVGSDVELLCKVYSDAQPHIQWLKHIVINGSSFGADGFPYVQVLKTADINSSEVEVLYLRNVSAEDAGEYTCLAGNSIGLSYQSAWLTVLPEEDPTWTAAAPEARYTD
The experiment in a line: ELISA, 100 ng FGFR4 protein coated per well, 1B5 at 1 ug/mL, HRP goat anti-mouse IgG, OD450.

Experiment [2] has as its target T1, FGFR4蛋白 (FGFR4 protein antigen, bought from Sino Biological / 义翘神州) (human). The experiment in a line: Western blot on denatured FGFR4 protein (~500 ng per lane), ~10 ug 1B5 in 3 mL. For orientation: A western blot detects proteins with antibodies after separation by electrophoresis.

Results are given in words; binding and its absence hold for the method and conditions named. Some binding calls cover weakened binding; strength is not graded here.

B1: 抗成纤维细胞生长因子受体4单克隆抗体1B5 (antibody, V domains shown)
VH: EVMLVQSGPELKKPGETVKISCKASGYTFTNFGMNWVKQAPGKGLKWMGWINTYTGEPTYADDFKGRFVFSLETSASTAYLQINNLKNEDTATYLCVRSSSGYVFDYWGQGTIVTVG
VL: DIVMTQSPSSLAVSAGEKVTMSCKSSQSLLNSRTRKNYLAWYQQKPGQSPKLLIYWASTRESGVPDRFTGSGSGTDFTLTISSVQAEDLAVYYCKQSYNLLTFGEGTKLEIT
Regarding B1, the binding entry in experiment [1] and in experiment [2] was “binds” each time.
